Source: publication PMC4757782
These are yes or no findings as the source states them, for the method shown. Some binding calls cover weakened binding; strength is not graded here.

Biological target: T1, mouse Vipr2 (receptor for vasoactive intestinal peptide) (mouse) (UniProt P41588)
T1 sequence: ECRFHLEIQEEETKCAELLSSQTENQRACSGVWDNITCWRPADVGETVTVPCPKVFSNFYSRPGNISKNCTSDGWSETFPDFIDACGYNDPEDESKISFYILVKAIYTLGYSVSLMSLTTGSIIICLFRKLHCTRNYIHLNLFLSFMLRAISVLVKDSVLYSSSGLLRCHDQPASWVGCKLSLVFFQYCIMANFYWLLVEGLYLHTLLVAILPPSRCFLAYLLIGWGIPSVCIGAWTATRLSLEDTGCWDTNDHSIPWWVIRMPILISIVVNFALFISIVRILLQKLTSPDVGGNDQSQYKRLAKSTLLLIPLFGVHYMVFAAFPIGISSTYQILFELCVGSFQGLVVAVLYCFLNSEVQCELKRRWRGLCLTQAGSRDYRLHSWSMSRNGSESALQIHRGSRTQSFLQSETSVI
Experiment: radioligand binding; membrane fractions (10 ug protein) of Flp-In TREx293-Gpr176(tet-on)/Vipr2 cells, with or without Dox, incubated with 1, 10 or 100 nM [125I]-Vip in HBSS, 5 mM HEPES pH 7.5, 0.1% BSA, 60 min at 4 C; bound peptide separated by centrifugation; specific binding by subtracting the radioactivity of parental Flp-In TREx293 cells; only the binder purified

binding: binds
Binder: HSDAVFTDNYTRLRKQMAVKKYLNSILN (peptide, UniProt P01282 125-152, 125I label (position not given)) [[^125I]-labelled vasoactive intestinal peptide (Vip)]
